Results: the supplement of paper PMC10331698
± gives the standard deviation of the averaged measurements. Most entries show no effect beyond the scatter of the controls.

How the values were obtained:
Assay in all cases: level (log10 ratio to DMSO vehicle control); higher = higher biomarker level / cell amount than vehicle control
[1] = compound: OCCC(F)(F)C(F)(F)C(F)(F)C(F)(F)C(F)(F)C(F)(F)F [6:2 Fluorotelomer alcohol]; settings: 2200 nM; in DMSO
Protocol: (§1)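 BioMAP Diversity Plus panel of 12 human primary cell co-culture systems (3C, 4H, LPS, SAg, BT, BF4T, BE3C, CASM3C, HDF3CGF, KF3CT, MyoF, Mphg). Compounds were added 1 h before stimulation and left for 24 h (MyoF 48 h; BT 72 h for soluble read-outs or 6 d for IgG). Biomarkers were read by ELISA, cytotoxicity by SRB, PBMC viability and proliferation by Alamar Blue. Each well value was divided by the mean of 8 DMSO control wells on the same plate and log10 transformed; duplicate blinded samples were tested at 4 concentrations.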

[2] = compound: CN(C(=O)C(F)(F)C(F)(F)C(F)(F)F)[Si](C)(C)C [N-Methyl-N-trimethylsilylheptafluorobutyramide]; settings: 2200 nM; in DMSO
Protocol: as §1

[3] = compound: NC(=O)C(F)(F)C(F)(F)C(F)(F)F [Heptafluorobutyramide]; settings: 2200 nM; in DMSO
Protocol: as §1

[4] = compound: CCCCCCCCC(F)(F)C(F)(F)C(F)(F)C(F)(F)C(F)(F)C(F)(F)F [1-(Perfluorohexyl)octane]; settings: in DMSO
Protocol: as §1

[5] = compound: FC(F)(F)C(F)(F)C(F)(F)C(F)(F)C(F)(F)C(F)(F)CC1CO1 [3-(Perfluorohexyl)-1,2-epoxypropane]; settings: 2200 nM; in DMSO
Protocol: as §1

[6] = compound: CCN(CCO)S(=O)(=O)C(F)(F)C(F)(F)C(F)(F)C(F)(F)C(F)(F)C(F)(F)C(F)(F)C(F)(F)F [N-Ethyl-N-(2-hydroxyethyl)perfluorooctanesulfonamide]; settings: in DMSO
Protocol: as §1

[7] = compound: NCC(F)(F)C(F)(F)C(F)(F)C(F)(F)C(F)(F)C(F)(F)C(F)(F)F [1H,1H-Perfluorooctylamine]; settings: 2200 nM; in DMSO
Protocol: as §1

[8] = compound: Cc1ccc(S(=O)(=O)OCC(F)(F)C(F)(F)C(F)(F)C(F)(F)C(F)(F)C(F)F)cc1 [1H,1H,7H-Perfluoroheptyl 4-methylbenzenesulfonate]; settings: 2200 nM; in DMSO
Protocol: as §1

[9] = compound: OCC(F)(F)C(F)(F)C(F)(F)F [1H,1H-Heptafluorobutanol]; settings: 2200 nM; in DMSO
Protocol: as §1

[10] = compound: O=C(O)C(F)(F)C(F)(F)C(F)(F)C(F)(F)C(F)(F)C(F)(F)C(F)(F)C(F)(F)C(F)(F)C(F)F [11-H-Perfluoroundecanoic acid]; settings: 2200 nM; in DMSO
Protocol: as §1

[11] = compound: O=C(O)C(F)(F)C(F)(F)C(F)(F)OC(F)(F)F [Perfluoro(4-methoxybutanoic) acid]; settings: 2200 nM; in DMSO
Protocol: as §1

[12] = compound: O=C(O)C(F)(F)C(F)(F)C(F)(F)C(F)(F)C(=O)O [Octafluoroadipic acid]; settings: 2200 nM; in DMSO
Protocol: as §1

[13] = compound: O=S(=O)(O)CCC(F)(F)C(F)(F)C(F)(F)C(F)(F)C(F)(F)C(F)(F)C(F)(F)C(F)(F)F [8:2 Fluorotelomer sulfonic acid]; settings: in DMSO
Protocol: as §1

[14] = compound: O=C(O)C(F)(F)C(F)(F)C(F)(F)C(F)(F)C(F)(F)C(F)(F)F [Perfluoroheptanoic acid]; settings: in DMSO
Protocol: as §1

[15] = compound: CC(C)(C)C(=O)CC(=O)C(F)(F)C(F)(F)C(F)(F)F [(Heptafluorobutanoyl)pivaloylmethane]; settings: 2200 nM; in DMSO
Protocol: as §1

[16] = compound: O=C(O)C(F)(F)C(F)(F)C(F)(F)C(F)(F)F [Perfluoropentanoic acid]; settings: in DMSO
Protocol: as §1

Row | Test System | level (log10) [1] | level (log10) [2] | level (log10) [3] | level (log10) ([4]; 740 nM) | level (log10) ([4]; 2200 nM) | level (log10) [5] | level (log10) ([6]; 2200 nM) | level (log10) ([6]; 6700 nM) | level (log10) ([6]; 20000 nM) | level (log10) [7] | level (log10) [8] | level (log10) [9] | level (log10) [10] | level (log10) [11] | level (log10) [12] | level (log10) ([13]; 2200 nM) | level (log10) ([13]; 6700 nM) | level (log10) ([13]; 20000 nM) | level (log10) ([13]; 60000 nM) | level (log10) ([14]; 2200 nM) | level (log10) ([14]; 6700 nM) | level (log10) ([14]; 20000 nM) | level (log10) ([14]; 60000 nM) | level (log10) [15] | level (log10) ([16]; 2200 nM) | level (log10) ([16]; 6700 nM) | level (log10) ([16]; 20000 nM) | level (log10) ([16]; 60000 nM)
1 | SAg:CXCL9/MIG | 0.0065 ± 0.00071 | 0.015 ± 0.021 | -0.001 ± 0.0057 | -0.0075 ± 0.023 | -0.0045 ± 0.016 | 0.0045 ± 0.011 | -0.0015 ± 0.005 | -0.0135 ± 0.005 | -0.0075 ± 0.013 | 0.0045 ± 0.0078 | 0 ± 0.0099 | 0.0105 ± 0.019 | -0.004 ± 0.011 | 0.0095 ± 0.0064 | 0.01 ± 0.0085 | 0.01 ± 0.0057 | 0.0005 ± 0.018 | -0.008 ± 0.0028 | 0.001 ± 0.0057 | 0 ± 0.023 | -0.0125 ± 0.0078 | 0.0015 ± 0.0064 | 0.0105 ± 0.011 | 0.001 ± 0.0071 | 0.0065 ± 0.028 | -0.0115 ± 0.0078 | -0.014 ± 0.0099 | 0.004 ± 0.021
2 | SAg:PBMC Cytotoxicity | 0.021 ± 0.031 | 0.026 ± 0.014 | -0.0155 ± 0.0035 | 0.012 ± 0.045 | -0.001 ± 0.042 | 0.007 ± 0.082 | 0.0035 ± 0.04 | -0.039 ± 0.052 | -0.0865 ± 0.042 | 0.024 ± 0.011 | 0.01 ± 0.045 | 0.02 ± 0.031 | 0.0175 ± 0.049 | -0.004 ± 0.0042 | -0.0005 ± 0.0035 | 0.017 ± 0.013 | -0.0125 ± 0.015 | 0 ± 0.0042 | 0.0075 ± 0.0021 | 0.011 ± 0.034 | 0.0255 ± 0.0021 | 0.0095 ± 0.019 | 0.0195 ± 0.026 | -0.0015 ± 0.046 | -0.0045 ± 0.053 | -0.0105 ± 0.023 | -0.0135 ± 0.012 | 0.0145 ± 0.022
3 | SAg:Proliferation | 0.0055 ± 0.0021 | 0.026 ± 0.085 | -0.019 ± 0.0028 | -0.0125 ± 0.13 | 0.036 ± 0.027 | 0.031 ± 0.051 | -0.0235 ± 0.032 | -0.098 ± 0.0057 | -0.335 ± 0.098 | -0.017 ± 0.041 | 0.0465 ± 0.039 | 0.024 ± 0.034 | -0.0295 ± 0.029 | -0.0175 ± 0.015 | 0.005 ± 0.024 | -0.032 ± 0.054 | -0.02 ± 0.054 | -0.0085 ± 0.011 | -0.0735 ± 0.0035 | 0.014 ± 0.073 | 0.0045 ± 0.032 | 0.0275 ± 0.035 | 0.028 ± 0.034 | 0.023 ± 0.037 | 0.0265 ± 0.056 | -0.0195 ± 0.04 | 0.0205 ± 0.046 | 0.0175 ± 0.08
4 | SAg:SRB | 0 ± 0.014 | 0.008 ± 0.0085 | -0.0145 ± 0.0035 | 0.015 ± 0.0057 | 0.0075 ± 0.0064 | -0.008 ± 0.011 | -0.0065 ± 0.0021 | -0.046 ± 0.0057 | -0.118 ± 0.024 | 0.01 ± 0.011 | 0.001 ± 0.017 | -0.0015 ± 0.0021 | 0.011 ± 0.014 | -0.02 ± 0.011 | -0.018 ± 0.0099 | 0.002 ± 0.023 | -0.0075 ± 0.0035 | -0.0095 ± 0.0035 | -0.0335 ± 0.011 | -0.022 ± 0.0028 | -0.0155 ± 0.013 | 0.001 ± 0.011 | -0.0385 ± 0.016 | 0.006 ± 0.0028 | -0.008 ± 0.016 | -0.007 ± 0.0099 | -0.0035 ± 0.00071 | 0.0055 ± 0.015
